The list shows a part of the results.

Amino acid sequences for entries named in this document (tags omitted). A change or cut given only in a name is not applied to a line headed by its entry.
UniProt Q05BV3: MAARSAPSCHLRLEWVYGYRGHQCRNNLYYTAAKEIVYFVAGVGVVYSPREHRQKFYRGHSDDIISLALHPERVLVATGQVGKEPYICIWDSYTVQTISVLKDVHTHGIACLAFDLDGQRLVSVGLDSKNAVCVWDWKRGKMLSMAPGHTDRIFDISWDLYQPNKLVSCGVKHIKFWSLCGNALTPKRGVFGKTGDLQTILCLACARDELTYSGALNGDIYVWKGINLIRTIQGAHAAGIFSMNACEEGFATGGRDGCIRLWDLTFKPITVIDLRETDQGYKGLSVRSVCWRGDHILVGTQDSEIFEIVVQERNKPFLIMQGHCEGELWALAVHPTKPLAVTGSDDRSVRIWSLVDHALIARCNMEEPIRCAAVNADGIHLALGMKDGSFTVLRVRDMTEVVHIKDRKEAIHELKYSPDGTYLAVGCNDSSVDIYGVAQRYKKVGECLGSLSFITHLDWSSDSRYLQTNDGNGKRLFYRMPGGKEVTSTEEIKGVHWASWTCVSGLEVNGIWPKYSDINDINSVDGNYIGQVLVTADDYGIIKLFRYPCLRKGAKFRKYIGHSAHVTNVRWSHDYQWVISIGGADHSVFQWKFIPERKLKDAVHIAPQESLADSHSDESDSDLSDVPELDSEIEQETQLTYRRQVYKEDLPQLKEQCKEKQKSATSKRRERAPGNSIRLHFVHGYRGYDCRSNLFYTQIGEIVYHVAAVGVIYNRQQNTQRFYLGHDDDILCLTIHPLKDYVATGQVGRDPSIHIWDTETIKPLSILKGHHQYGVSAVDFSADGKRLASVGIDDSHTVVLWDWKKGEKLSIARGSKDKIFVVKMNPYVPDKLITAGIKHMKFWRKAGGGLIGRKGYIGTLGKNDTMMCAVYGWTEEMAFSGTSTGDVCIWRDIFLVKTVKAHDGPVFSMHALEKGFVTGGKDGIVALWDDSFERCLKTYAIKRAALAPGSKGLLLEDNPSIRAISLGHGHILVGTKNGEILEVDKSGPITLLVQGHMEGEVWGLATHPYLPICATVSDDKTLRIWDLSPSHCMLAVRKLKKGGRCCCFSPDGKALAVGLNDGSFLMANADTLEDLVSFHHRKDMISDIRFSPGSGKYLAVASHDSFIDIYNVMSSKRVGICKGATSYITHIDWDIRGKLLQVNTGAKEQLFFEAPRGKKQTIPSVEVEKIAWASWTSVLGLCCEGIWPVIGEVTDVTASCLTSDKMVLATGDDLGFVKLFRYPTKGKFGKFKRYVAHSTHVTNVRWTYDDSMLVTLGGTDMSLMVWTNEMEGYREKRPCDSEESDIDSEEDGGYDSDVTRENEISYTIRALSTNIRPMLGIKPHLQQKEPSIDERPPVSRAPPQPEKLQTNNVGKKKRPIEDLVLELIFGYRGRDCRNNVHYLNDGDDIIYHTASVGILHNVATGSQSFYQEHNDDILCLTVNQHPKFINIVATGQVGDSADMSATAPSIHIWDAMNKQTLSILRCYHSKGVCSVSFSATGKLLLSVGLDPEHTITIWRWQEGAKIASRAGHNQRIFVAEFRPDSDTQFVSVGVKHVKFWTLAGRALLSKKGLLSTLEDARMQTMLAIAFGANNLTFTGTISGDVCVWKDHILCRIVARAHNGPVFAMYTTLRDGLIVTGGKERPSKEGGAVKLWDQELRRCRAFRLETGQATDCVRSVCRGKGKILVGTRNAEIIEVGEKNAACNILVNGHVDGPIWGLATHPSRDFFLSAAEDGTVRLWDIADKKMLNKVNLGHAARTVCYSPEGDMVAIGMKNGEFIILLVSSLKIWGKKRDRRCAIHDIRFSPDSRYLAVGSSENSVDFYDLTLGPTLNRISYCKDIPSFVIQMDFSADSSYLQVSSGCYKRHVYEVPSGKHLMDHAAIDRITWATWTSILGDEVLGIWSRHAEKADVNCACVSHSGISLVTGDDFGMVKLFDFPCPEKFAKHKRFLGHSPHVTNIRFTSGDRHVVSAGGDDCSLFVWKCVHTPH
UniProt P26378: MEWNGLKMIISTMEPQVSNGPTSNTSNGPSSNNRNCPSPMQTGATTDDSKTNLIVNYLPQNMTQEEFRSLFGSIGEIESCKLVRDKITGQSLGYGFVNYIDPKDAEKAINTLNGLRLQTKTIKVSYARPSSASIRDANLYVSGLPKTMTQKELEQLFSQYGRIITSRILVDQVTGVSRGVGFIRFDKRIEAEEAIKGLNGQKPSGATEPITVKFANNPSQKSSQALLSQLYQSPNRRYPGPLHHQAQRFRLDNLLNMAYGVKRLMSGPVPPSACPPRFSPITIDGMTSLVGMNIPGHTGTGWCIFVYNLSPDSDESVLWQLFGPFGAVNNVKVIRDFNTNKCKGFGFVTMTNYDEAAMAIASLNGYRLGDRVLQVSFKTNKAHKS
UniProt Q5JPI9: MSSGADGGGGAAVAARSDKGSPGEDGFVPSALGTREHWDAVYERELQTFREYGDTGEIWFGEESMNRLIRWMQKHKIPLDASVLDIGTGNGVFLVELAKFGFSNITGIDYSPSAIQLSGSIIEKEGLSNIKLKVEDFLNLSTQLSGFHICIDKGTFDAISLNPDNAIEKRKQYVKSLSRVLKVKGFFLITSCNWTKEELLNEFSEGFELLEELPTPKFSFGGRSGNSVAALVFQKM
UniProt Q9NZJ5: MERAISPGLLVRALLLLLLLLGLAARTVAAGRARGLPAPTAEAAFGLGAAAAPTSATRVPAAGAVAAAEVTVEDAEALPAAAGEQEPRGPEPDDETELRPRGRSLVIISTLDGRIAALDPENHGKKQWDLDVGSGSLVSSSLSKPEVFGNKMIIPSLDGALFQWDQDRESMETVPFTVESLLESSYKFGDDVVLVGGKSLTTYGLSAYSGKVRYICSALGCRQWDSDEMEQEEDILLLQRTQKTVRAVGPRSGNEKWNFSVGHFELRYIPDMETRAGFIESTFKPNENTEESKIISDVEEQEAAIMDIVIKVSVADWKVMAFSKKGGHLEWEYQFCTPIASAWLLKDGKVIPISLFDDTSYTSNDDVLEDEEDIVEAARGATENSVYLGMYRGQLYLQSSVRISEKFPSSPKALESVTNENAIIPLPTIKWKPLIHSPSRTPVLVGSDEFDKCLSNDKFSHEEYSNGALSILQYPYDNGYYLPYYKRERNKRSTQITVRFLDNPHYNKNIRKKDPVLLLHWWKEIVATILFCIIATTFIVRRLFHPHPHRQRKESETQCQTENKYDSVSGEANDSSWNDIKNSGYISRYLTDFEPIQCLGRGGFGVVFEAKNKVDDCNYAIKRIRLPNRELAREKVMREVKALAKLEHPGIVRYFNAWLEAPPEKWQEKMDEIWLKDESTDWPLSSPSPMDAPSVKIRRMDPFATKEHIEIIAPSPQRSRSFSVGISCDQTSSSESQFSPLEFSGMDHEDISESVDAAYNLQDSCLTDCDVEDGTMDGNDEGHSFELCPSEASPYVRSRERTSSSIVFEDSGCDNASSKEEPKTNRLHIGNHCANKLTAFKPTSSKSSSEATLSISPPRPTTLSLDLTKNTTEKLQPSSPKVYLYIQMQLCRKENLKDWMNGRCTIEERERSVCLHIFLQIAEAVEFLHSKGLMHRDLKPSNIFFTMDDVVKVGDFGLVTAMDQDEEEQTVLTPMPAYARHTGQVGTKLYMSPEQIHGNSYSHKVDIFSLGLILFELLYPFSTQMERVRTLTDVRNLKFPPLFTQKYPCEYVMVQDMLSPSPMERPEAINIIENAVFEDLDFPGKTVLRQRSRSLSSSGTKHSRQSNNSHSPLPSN
UniProt P11171, whole entry, looked up: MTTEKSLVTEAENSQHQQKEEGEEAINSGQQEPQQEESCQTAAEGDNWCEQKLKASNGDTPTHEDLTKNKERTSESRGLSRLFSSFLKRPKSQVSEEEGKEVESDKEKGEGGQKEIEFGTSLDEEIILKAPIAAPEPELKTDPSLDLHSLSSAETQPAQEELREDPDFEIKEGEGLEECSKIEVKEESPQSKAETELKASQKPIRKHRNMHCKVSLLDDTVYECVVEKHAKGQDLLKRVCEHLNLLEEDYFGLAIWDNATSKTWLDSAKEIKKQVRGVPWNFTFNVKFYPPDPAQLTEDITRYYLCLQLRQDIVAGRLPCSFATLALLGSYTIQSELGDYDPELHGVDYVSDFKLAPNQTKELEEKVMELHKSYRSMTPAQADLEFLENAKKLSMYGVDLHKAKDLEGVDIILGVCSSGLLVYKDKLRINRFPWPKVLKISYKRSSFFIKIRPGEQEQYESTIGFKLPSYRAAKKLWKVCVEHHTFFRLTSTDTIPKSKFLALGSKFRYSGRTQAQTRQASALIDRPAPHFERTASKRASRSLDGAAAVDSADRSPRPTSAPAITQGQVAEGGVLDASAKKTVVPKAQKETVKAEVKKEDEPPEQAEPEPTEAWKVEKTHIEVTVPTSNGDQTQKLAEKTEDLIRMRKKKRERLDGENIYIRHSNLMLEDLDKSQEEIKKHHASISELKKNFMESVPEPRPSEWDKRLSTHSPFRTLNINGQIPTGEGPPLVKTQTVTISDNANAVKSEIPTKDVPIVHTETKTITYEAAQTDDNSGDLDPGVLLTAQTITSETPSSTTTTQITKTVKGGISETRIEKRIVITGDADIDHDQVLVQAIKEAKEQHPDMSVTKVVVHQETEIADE
UniProt Q9UI10, whole entry, looked up: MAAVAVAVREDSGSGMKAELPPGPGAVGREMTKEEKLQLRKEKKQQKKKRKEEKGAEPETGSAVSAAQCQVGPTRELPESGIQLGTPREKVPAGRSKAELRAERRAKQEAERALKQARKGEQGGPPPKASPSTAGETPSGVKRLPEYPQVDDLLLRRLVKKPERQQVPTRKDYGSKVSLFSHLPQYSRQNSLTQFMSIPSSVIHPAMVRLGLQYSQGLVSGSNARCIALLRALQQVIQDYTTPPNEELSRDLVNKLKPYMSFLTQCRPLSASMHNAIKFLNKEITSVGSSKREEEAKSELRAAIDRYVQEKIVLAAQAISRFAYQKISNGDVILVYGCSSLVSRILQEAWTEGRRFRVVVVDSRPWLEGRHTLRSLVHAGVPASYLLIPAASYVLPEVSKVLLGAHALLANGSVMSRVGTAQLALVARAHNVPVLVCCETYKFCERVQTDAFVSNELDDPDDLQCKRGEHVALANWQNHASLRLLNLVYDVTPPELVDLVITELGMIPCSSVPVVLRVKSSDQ
UniProt Q14241: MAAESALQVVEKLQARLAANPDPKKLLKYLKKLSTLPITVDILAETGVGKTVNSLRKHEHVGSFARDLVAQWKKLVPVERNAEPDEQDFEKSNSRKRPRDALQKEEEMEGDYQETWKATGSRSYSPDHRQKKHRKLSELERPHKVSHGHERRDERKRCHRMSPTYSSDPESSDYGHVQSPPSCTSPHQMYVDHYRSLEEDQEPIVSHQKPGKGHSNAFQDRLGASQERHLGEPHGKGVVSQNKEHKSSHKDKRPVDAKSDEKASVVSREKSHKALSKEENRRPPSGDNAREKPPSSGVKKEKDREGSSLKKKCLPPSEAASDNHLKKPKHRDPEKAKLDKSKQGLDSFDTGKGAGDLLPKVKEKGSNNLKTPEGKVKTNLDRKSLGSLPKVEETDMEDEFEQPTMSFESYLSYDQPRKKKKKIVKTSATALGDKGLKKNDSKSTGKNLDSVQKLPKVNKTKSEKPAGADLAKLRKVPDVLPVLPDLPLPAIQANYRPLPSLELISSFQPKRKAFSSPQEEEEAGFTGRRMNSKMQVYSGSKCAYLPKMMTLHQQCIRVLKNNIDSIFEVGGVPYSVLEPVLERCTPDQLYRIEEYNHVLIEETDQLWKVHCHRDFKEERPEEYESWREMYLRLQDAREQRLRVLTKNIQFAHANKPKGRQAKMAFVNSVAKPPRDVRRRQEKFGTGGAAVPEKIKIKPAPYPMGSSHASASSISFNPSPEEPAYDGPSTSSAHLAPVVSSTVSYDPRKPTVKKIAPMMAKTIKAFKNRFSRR
UniProt O00418: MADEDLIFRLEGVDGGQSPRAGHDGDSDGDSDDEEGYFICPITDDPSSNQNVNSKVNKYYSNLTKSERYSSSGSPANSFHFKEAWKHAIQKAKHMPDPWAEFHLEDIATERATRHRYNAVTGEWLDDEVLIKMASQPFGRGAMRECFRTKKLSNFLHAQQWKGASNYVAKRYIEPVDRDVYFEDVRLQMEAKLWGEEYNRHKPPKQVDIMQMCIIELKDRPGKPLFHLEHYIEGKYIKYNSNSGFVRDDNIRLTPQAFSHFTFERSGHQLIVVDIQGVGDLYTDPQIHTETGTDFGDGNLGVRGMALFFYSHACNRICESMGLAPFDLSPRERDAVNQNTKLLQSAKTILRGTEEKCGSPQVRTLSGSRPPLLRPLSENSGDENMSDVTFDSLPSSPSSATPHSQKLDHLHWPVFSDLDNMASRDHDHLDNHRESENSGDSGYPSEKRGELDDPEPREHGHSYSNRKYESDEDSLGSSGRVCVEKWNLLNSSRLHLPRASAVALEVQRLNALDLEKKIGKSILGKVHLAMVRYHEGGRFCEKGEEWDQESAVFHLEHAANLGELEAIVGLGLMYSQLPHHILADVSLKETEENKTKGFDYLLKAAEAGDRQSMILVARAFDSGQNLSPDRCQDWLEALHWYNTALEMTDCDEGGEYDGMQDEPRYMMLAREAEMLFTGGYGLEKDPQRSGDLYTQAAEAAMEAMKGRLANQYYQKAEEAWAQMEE

The source of these data is the supplement of paper PMC10849652.

Compound in the first assay: CCN(CCCOc1ccc2c(Nc3cc(CC(=O)Nc4cccc(F)c4)[nH]n3)ncnc2c1)CCOP(=O)(O)O [barasertib]
As to the kind of experiment: log2 fold change, soluble protein after heating vs DMSO (PISA); higher = thermal stabilisation; K562 cells, 10 uM, 30 min; active = over 0.2 and 3.5 SD of the protein, either way, in both replicates (recomputed). A digest of the protocol: (§1)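 Soluble protein was defined as the supernatant after 21,000xg for 90 min. It came from K562 cells at 2×10^6 cells/mL given 10 μM compound for 30 min, heated in aliquots for 3 min across 48°C-58°C, pooled, and extracted in PBS with 0.5% NP-40 at 4°C, and was quantified by TMTpro 16plex LC-MS/MS with equalised channel sums. Thermal stability against control samples, from duplicates, is reported as log2 fold change.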
For EML5 isoform 5 (UniProt Q05BV3), the log2 fold change was inactive: 0.045.

For the target ELAVL4 (UniProt P26378), the log2 fold change is inactive: -0.006.

As to EIF4B (UniProt F8VP89), the log2 fold change was inactive: 0.012.

Turning to EIF5A2 (UniProt Q9GZV4), the log2 fold change is inactive: 0.176.

For EEF1AKMT2 (UniProt Q5JPI9), the log2 fold change was inactive: -0.126.

Take EIF2AK3 (UniProt Q9NZJ5): the log2 fold change was inactive: 0.151.

For the target EPB41L1 (UniProt Q9H4G0), the log2 fold change is inactive: 0.042.

As to EPB41 isoform 4 (UniProt P11171), the log2 fold change was inactive: -0.055.

Take ENPP2 isoform 2 (UniProt Q13822): the log2 fold change is inactive: 0.036.

EIF2B4 (UniProt Q9UI10): the log2 fold change is inactive: -0.015.

Compound in a further assay: CC[C@@H]1C(=O)N(C)c2cnc(Nc3ccc(C(=O)NC4CCN(C)CC4)cc3OC)nc2N1C1CCCC1
Described as above. Summed up:
as §1
For ENKD1 (UniProt Q9H0I2), the log2 fold change was inactive: 0.088.

Regarding EHBP1 (UniProt Q8NDI1), the log2 fold change was inactive: -0.155.

Regarding ELAVL4 (UniProt P26378), the log2 fold change is inactive: 0.118.

EIF4B (UniProt F8VP89): the log2 fold change was inactive: -0.023.

Take EEF1AKMT2 (UniProt Q5JPI9): the log2 fold change is inactive: -0.101.

Turning to EIF2AK3 (UniProt Q9NZJ5), the log2 fold change was inactive: 0.322.

As for ELOA (UniProt Q14241), the log2 fold change is inactive: 0.036.

On to EPB41L1 (UniProt Q9H4G0), for which the log2 fold change is inactive: -0.121.

On to EIF2B4 (UniProt Q9UI10), for which the log2 fold change is inactive: 0.119.

Regarding EIF4E3 (UniProt Q8N5X7), the log2 fold change was inactive: -0.106.

Consider EFCAB2 (UniProt Q5VUJ9), for which the log2 fold change was inactive: -0.074.

Turning to EEF2K (UniProt O00418), the log2 fold change was inactive: -0.046.

Compound in another assay: CC[C@@H]1C(=O)N(C)c2cnc(Nc3ccc(C(=O)N[C@H]4CC[C@H](N5CCN(CC6CC6)CC5)CC4)cc3OC)nc2N1C(C)C [volasertib]
The assay is described as above. A digest of the protocol: as §1
Consider EML5 isoform 5 (UniProt Q05BV3), for which the log2 fold change is inactive: -0.033.

For the target ELP5 isoform 2 (UniProt Q8TE02), the log2 fold change is inactive: 0.198.

Regarding ENKD1 (UniProt Q9H0I2), the log2 fold change is inactive: 0.046.

EIF4B (UniProt F8VP89): the log2 fold change was inactive: 0.109.

EIF2AK3 (UniProt Q9NZJ5): the log2 fold change is inactive: -0.114.

EPB41L1 (UniProt Q9H4G0): the log2 fold change is inactive: -0.088.

As for EPB41 isoform 4 (UniProt P11171), the log2 fold change is inactive: -0.16.

As for ENTR1 (UniProt Q96C92), the log2 fold change is inactive: 0.167.

Consider EIF2B4 (UniProt Q9UI10), for which the log2 fold change was inactive: -0.347.

For ENTPD3 (UniProt O75355), the log2 fold change was inactive: 0.016.

Turning to EEF2K (UniProt O00418), the log2 fold change was inactive: -0.395.

Compound in the next assay: CC[C@H](C)N1C=C(C2=C(C=C(C=C21)C3=CN=C(C=C3)N4CCNCC4)C(=O)NCC5=C(C=C(NC5=O)C)C)C
The assay is described as above. A digest of the protocol:
as §1
On to EML5 isoform 5 (UniProt Q05BV3), for which the log2 fold change is inactive: -0.179.

Regarding ELAVL4 (UniProt P26378), the log2 fold change is inactive: -0.013.

In the case of EIF4B (UniProt F8VP89), the log2 fold change was inactive: -0.026.

As for EIF2AK3 (UniProt Q9NZJ5), the log2 fold change is inactive: 0.357.

Take EPB41, A0A2R8Y783: the log2 fold change was inactive: -0.136.

With EPB41L1 (UniProt Q9H4G0), the log2 fold change is inactive: 0.027.

As for EMC9 (UniProt Q9Y3B6), the log2 fold change is inactive: 0.046.

Compound in another assay: CC[C@H](C)[C@@H](C(=O)N[C@@H]([C@@H](C)O)C(=O)N[C@@H](CC(C)C)C(=O)[C@]1(CO1)C)NC(=O)[C@H]([C@@H](C)CC)N(C)C(=O)C [epoxomicin]
The description is as above. Summed up:
as §1
Turning to EIF3E (UniProt E5RIT4), the log2 fold change was inactive: 0.087.

Consider EIF2AK3 (UniProt Q9NZJ5), for which the log2 fold change is inactive: 0.033.

As for ELOA (UniProt Q14241), the log2 fold change was inactive: -0.158.

Turning to EPB41L1 (UniProt Q9H4G0), the log2 fold change is inactive: -0.006.

On to ENPP2 isoform 2 (UniProt Q13822), for which the log2 fold change is inactive: -0.347.

ELOVL7 (UniProt A1L3X0): the log2 fold change was inactive: 0.007.

On to EIF2B4 (UniProt Q9UI10), for which the log2 fold change was inactive: 0.06.

EEF1AKMT1 (UniProt Q8WVE0): the log2 fold change was inactive: -0.297.

As for EEF2K (UniProt O00418), the log2 fold change is inactive: 0.093.

Compound in another assay: CCn1c(C(=O)N(C2CC2)C2CC2)cc2c3c(ncn3C)c(Nc3cc(C)n(C)n3)nc21
Described as above. Summed up: as §1
For EML5 isoform 5 (UniProt Q05BV3), the log2 fold change is inactive: 0.039.

On to ELP5 isoform 2 (UniProt Q8TE02), for which the log2 fold change was inactive: -0.012.

Consider ENKD1 (UniProt Q9H0I2), for which the log2 fold change was inactive: -0.061.

EEF1AKMT2 (UniProt Q5JPI9): the log2 fold change was inactive: -0.03.

Consider EPB41L1 (UniProt Q9H4G0), for which the log2 fold change is inactive: -0.001.

Consider EIF2B4 (UniProt Q9UI10), for which the log2 fold change is inactive: 0.02.

As to EIF4E3 (UniProt Q8N5X7), the log2 fold change is inactive: 0.048.

With EFCAB2 (UniProt Q5VUJ9), the log2 fold change is inactive: -0.173.

Take EIF4H isoform 2 (UniProt Q15056): the log2 fold change was inactive: 0.084.

Compound in another assay: CCn1cc(-c2ccnc3[nH]c(-c4cccc(CN(C)C)c4)cc23)c(-c2ccc(NC(=O)N(C)C)cc2)n1
The description is as above. A digest of the protocol:
as §1
With EP400 (UniProt Q96L91), the log2 fold change was inactive: 0.061.

For ENKD1 (UniProt Q9H0I2), the log2 fold change is inactive: 0.007.

For ENAH (UniProt Q8N8S7), the log2 fold change is inactive: 0.02.

With EHBP1 (UniProt Q8NDI1), the log2 fold change was inactive: 0.011.

With ELAVL4 (UniProt P26378), the log2 fold change is inactive: 0.121.

Consider EIF4B (UniProt F8VP89), for which the log2 fold change was inactive: 0.048.

For EIF2AK3 (UniProt Q9NZJ5), the log2 fold change is inactive: 0.106.

Regarding EIF4G1 (UniProt Q04637), the log2 fold change was inactive: 0.062.

Take ELOA (UniProt Q14241): the log2 fold change is inactive: 0.241.

With EPB41L1 (UniProt Q9H4G0), the log2 fold change is inactive: 0.06.

For the target EPB41 isoform 4 (UniProt P11171), the log2 fold change is inactive: -0.099.

Consider EIF2B4 (UniProt Q9UI10), for which the log2 fold change was inactive: 0.056.

As for ELK1 (UniProt P19419), the log2 fold change is inactive: -0.066.

EFCAB2 (UniProt Q5VUJ9): the log2 fold change was inactive: 0.011.

On to EEF2K (UniProt O00418), for which the log2 fold change was inactive: 0.028.

For EIF4H isoform 2 (UniProt Q15056), the log2 fold change was inactive: 0.257.
